Results deposited as PubChem BioAssay AID1259254 (NCATS, 2017).

Assay: 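Genome-wide screen for genes that prevent DNA re-replication in cancer cells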 (primary screen)
System: human HCT116 colorectal cancer cells
Reagent: single siRNA against human genes
Time to read-out: 3 days
Read-out: 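Imaged Hoechst DNA stain sorts each cell into a cycle phase by DNA amount; per plate, G2 fraction set to 0% for non-targeting and 100% for GMNN siRNA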
Reading the numbers: G2 robust z-score and G2 cells, % of GMNN control: higher = more G2 cells, more excess DNA replication; raw share of cells in G2: higher = larger share of cells with G2 DNA content
Rule for the call: 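Active siRNAs have a G2 robust z of 5 or more median absolute deviations over the median, which in these data means about 38% or higher of GMNN control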
Here is an unselected part of about 59,000 reagents tested. About 1,550 of them (2.6%) were called active. 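G2 share is only a proxy for re-replication; each gene was hit by three separate siRNAs, and active genes were retested.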 Raw values are not corrected between plates. Entries without a mark were called inactive. Not stated in the record: the amount of reagent.

| target gene | PubChem SID | G2 robust z-score | G2 cells, % of GMNN control | raw share of cells in G2 (%) |
| --- | --- | --- | --- | --- |
| UBE3A (GeneID 7337) | SID160718554 | -0.728 | -2.15 | 4.69 |
| UBE3A (GeneID 7337) | SID160718555 | 1.24 | 11.7 | 8.32 |
| UBE3A (GeneID 7337) | SID160718556 | -0.186 | 1.66 | 4.88 |
| SLFN12 (GeneID 55106) | SID160742951 | 2.43 | 20.1 | 12.2 |
| SLFN12 (GeneID 55106) | SID160742952 | 2.54 | 20.8 | 12.8 |
| SLFN12 (GeneID 55106) | SID160742953 | 1.87 | 16.1 | 8.28 |
| BAX (GeneID 581) | SID160723052 | -0.739 | -2.23 | 4.28 |
| BAX (GeneID 581) | SID160723063 | 0.022 | 3.12 | 5.15 |
| BAX (GeneID 581) | SID160731627 | -0.581 | -1.12 | 4.34 |
| BAD (GeneID 572) | SID160722765 | 2.26 | 18.9 | 11.1 |
| BAD (GeneID 572) | SID160722775 | -1.09 | -4.7 | 3.4 |
| BAD (GeneID 572) | SID160722785 | -0.724 | -2.12 | 3.2 |
| HEY1 (GeneID 23462) | SID160730854 | 0.204 | 4.4 | 8.14 |
| HEY1 (GeneID 23462) | SID160736324 | 0.988 | 9.92 | 7.26 |
| HEY1 (GeneID 23462) | SID160736325 | -0.24 | 1.28 | 4.58 |
| SMOX (GeneID 54498) | SID160741796 | -0.698 | -1.94 | 5.07 |
| SMOX (GeneID 54498) | SID160741797 | -0.976 | -3.9 | 2.8 |
| SMOX (GeneID 54498) | SID160741798 | 2.45 | 20.2 | 11.5 |
| ANKLE1 (GeneID 126549) | SID160756501 | 1.87 | 16.1 | 10.3 |
| ANKLE1 (GeneID 126549) | SID160756502 | 1.59 | 14.2 | 7.59 |
| ANKLE1 (GeneID 126549) | SID160756503 | 1.94 | 16.6 | 8.59 |
| TRIM60 (GeneID 166655) | SID160760215 | -0.0684 | 2.49 | 7.14 |
| TRIM60 (GeneID 166655) | SID160760216 | 0.0401 | 3.25 | 5.89 |
| TRIM60 (GeneID 166655) | SID160760217 | 0.549 | 6.83 | 7.57 |
| TMEM215 (GeneID 401498) | SID160733347 | -0.716 | -2.07 | 3.93 |
| TMEM215 (GeneID 401498) | SID160767309 | 4.52 | 34.8 | 16.5 |
| TMEM215 (GeneID 401498) | SID160767310 | -0.18 | 1.7 | 4.19 |
| TMEM132C (GeneID 92293) | SID160754249 | 3.4 | 26.9 | 15.5 |
| TMEM132C (GeneID 92293) | SID160754250 | 0.119 | 3.81 | 4.19 |
| TMEM132C (GeneID 92293) | SID160754251 | -0.214 | 1.46 | 3.39 |

Part of the list above, reformatted.
target gene	PubChem SID	G2 robust z-score	G2 cells, % of GMNN control	raw share of cells in G2 (%)
SMOX (GeneID 54498)	SID160741797	-0.976	-3.9	2.8
SMOX (GeneID 54498)	SID160741798	2.45	20.2	11.5
